# Laboratory results: article PMC7418333
# These are yes or no findings as the source states them, for the method shown. In cells and extracts the contact can be indirect. Where a sequence is shown, tags or fusion partners need not be part of it.
# B1: STAG2 (protein, UniProt O35638 1-1231)
# chain: MIAAPEIPTDFNLLQESETHFSSDTDFEDIEGKNQKQGKGKTCKKGKKGPAEKGKSGNGGGKPPSGSNRMNGHHQQNGVENMMLFEVVKMGKSAMQSVVDDWIESYKHDRDIALLDLINFFIQCSGCKGVVTAEMFRHMQNSEIIRKMTEEFDEDSGDYPLTMAGPQWKKFKSSFCEFIGVLVRQCQYSIIYDEYMMDTVISLLTGLSDSQVRAFRHTSTLAAMKLMTALVNVALNLSINMDNTQRQYEAERNKMIGKRANERLELLLQKRKELQENQDEIENMMNAIFKGVFVHRYRDAIAEIRAICIEEIGIWMKMYSDAFLNDSYLKYVGWTMHDKQGEVRLKCLTALQGLYYNKELNSKLELFTSRFKDRIVSMTLDKEYDVAVQAIKLLTLVLQSSEEVLTAEDCENVYHLVYSAHRPVAVAAGEFLYKKLFSRRDPEEDGLMKRRGRQGPNANLVKTLVFFFLESELHEHAAYLVDSMWDCATELLKDWECMNSLLLEEPLSGEEALTDRQESALIEIMLCTIRQAAECHPPVGRGTGKRVLTAKEKKTQLDDRTRITELFAVALPQLLAKYSVDAEKVTNLLQLPQYFDLEIYTTGRLEKHLDALLRQIRNIVEKHTDTDVLEACSKTYHALCNEEFTIFNRVDISRSQLIDELADKFNRLLEDFLQEGEEPDEDDAYQVLSTLKRITAFHNAHDLSKWDLFACNYKLLKTGIENGDMPEQIVIHALQCAHYVILWQLAKITESTSTKEDLLRLKKQMRVFCQICQHYLTNVNTTVKEQAFTILCDILMIFSHQIMSGGRDMLEPLVYTPDSSLQSELLSFILDHVFIEQDDDSNSADGQQEDEASKIEALHKRRNLLAAFCKLIVYTVVEMNTAADIFKQYMKYYNDYGDIIKETMSKTRQIDKIQCAKTLILSLQQLFNEMIQENGYNFDRSSSTFSGIKELARRFALTFGLDQLKTREAIAMLHKDGIEFAFKEPNPQGESHPPLNLAFLDILSEFSSKLLRQDKRTVYVYLEKFMTFQMSLRREDVWLPLMSYRNSLLAGGDDDTMSVISGMSSRGSTVRSKKSKPSTGKRKVVEGMQLALPEESSSSDSMWLSREQTLHTPVMMQTPQLTSTIMREPKRLRPEDSFMSVYPMQAEHHQTPLDYNRRGTSLMEDDEEPIVEDVMMSSEGRIEDLNEGMDFDTMDIDLPPSKNRRERTELKPDFFDPASIMDESVLGVSMF
# Target: T1, STAG1 (mouse (endogenous in mESCs v6.5)) (UniProt Q9D3E6)
# T1 sequence: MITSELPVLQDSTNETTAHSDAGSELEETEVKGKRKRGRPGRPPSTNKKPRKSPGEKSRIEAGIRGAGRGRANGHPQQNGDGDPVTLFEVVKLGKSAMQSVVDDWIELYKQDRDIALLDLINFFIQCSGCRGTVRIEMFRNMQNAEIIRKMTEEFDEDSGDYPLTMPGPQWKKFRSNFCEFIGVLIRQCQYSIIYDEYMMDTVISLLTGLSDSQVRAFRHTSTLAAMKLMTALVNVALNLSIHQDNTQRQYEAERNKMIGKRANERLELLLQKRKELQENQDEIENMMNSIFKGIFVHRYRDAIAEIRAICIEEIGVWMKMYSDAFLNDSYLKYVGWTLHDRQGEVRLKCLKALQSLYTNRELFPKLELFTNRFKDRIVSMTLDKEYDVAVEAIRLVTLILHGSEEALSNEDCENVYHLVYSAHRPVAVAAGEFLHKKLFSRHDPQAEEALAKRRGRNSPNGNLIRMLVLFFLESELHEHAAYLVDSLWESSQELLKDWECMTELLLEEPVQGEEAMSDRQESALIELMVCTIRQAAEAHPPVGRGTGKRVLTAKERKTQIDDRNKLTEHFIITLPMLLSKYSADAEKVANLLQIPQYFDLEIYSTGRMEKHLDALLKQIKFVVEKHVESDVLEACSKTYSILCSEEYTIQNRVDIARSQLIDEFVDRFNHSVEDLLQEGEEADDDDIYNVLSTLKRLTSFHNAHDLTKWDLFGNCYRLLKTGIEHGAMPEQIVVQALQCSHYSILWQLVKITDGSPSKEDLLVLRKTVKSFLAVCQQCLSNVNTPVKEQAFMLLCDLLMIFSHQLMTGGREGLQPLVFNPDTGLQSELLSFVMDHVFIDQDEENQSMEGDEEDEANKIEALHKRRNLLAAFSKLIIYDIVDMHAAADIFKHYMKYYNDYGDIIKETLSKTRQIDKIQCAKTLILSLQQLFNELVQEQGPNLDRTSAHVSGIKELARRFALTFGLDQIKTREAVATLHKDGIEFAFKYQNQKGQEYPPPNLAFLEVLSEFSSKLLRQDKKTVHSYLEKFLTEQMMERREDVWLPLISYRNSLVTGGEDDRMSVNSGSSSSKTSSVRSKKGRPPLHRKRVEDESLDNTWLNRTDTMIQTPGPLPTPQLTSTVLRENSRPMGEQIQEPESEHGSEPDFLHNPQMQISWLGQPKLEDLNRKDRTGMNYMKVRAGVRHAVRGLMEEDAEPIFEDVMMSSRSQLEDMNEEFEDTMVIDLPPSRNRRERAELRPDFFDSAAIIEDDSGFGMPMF
# Assay: co-IP; endogenous proteins from mESC nuclear lysates, native conditions, nuclei digested with 10U Benzonase at 37 C for 15 min, 400 ug protein per IP, low stringency buffer, Protein G Dynabeads; western blot
binder,measurement,value
B1,binding,no binding
